Measured data: PubChem BioAssay AID1508597 (Cure First, 2020)
Assay: 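Genes whose silencing sensitises or protects ovarian cancer cells against rucaparib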 (primary screen). System: human ovarian carcinoma lines grown from tumours: OCI-P5x (papillary serous) and OCI-C5x (clear cell). Reagent: siRNA pool against human genes, 1.25 pmol siRNA per well. Time to read-out: 72 h or 96 h, depending on the cell culture. Challenge: rucaparib 20 µM (about IC30) or vehicle, present until read-out. Read-out: 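Luminescent ATP-based viability assay read 72 or 96 h after transfection, depending on culture, given as normalised percent viability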. Direction: viability, normalised: higher = more viable cells remaining. Rule for the call: 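a well counts as a hit if its normalised viability is under 80 percent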. Meaning of the calls: active = viability under 80%; inactive = viability 80% or more.
In all, the deposit lists about 2,100 reagents; this is a random part of them. 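Calls flag viability under 80% in either arm, not effects specific to rucaparib; the reference for percent is not stated.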 The record does not give: the 100% reference.

no.	Target gene	rucaparib or vehicle	cell line	technical replicate	viability, normalised (%)	outcome
1	CLDN12	Rucaparib	OCI-C5x (clear cell)	1	55.9	active
2	CLDN12	Rucaparib	OCI-C5x (clear cell)	2	51	active
3	CLDN12	Rucaparib	OCI-C5x (clear cell)	3	41.7	active
4	CLDN12	Rucaparib	OCI-P5x (serous)	1	67	active
5	CLDN12	Rucaparib	OCI-P5x (serous)	2	65.7	active
6	CLDN12	Rucaparib	OCI-P5x (serous)	3	59.7	active
7	CLDN12	Vehicle	OCI-C5x (clear cell)	1	27	active
8	CLDN12	Vehicle	OCI-C5x (clear cell)	2	51.7	active
9	CLDN12	Vehicle	OCI-C5x (clear cell)	3	51.8	active
10	CLDN12	Vehicle	OCI-P5x (serous)	1	54.1	active
11	CLDN12	Vehicle	OCI-P5x (serous)	2	74.5	active
12	CLDN12	Vehicle	OCI-P5x (serous)	3	54.8	active
13	STK32A	Rucaparib	OCI-C5x (clear cell)	1	45.4	active
14	STK32A	Rucaparib	OCI-C5x (clear cell)	2	56.4	active
15	STK32A	Rucaparib	OCI-C5x (clear cell)	3	48.7	active
16	STK32A	Rucaparib	OCI-P5x (serous)	1	94.9	inactive
17	STK32A	Rucaparib	OCI-P5x (serous)	2	104	inactive
18	STK32A	Rucaparib	OCI-P5x (serous)	3	99.5	inactive
19	STK32A	Vehicle	OCI-C5x (clear cell)	1	70.5	active
20	STK32A	Vehicle	OCI-C5x (clear cell)	2	56.6	active
21	STK32A	Vehicle	OCI-C5x (clear cell)	3	50.6	active
22	STK32A	Vehicle	OCI-P5x (serous)	1	101	inactive
23	STK32A	Vehicle	OCI-P5x (serous)	2	89.6	inactive
24	STK32A	Vehicle	OCI-P5x (serous)	3	72.6	active

Targets listed so far whose gene name begins with C or c:
Target gene	rucaparib or vehicle	cell line	technical replicate	viability, normalised (%)	outcome
CLDN12	Rucaparib	OCI-C5x (clear cell)	1	55.9	active
CLDN12	Rucaparib	OCI-C5x (clear cell)	2	51	active
CLDN12	Rucaparib	OCI-C5x (clear cell)	3	41.7	active
CLDN12	Rucaparib	OCI-P5x (serous)	1	67	active
CLDN12	Rucaparib	OCI-P5x (serous)	2	65.7	active
CLDN12	Rucaparib	OCI-P5x (serous)	3	59.7	active
CLDN12	Vehicle	OCI-C5x (clear cell)	1	27	active
CLDN12	Vehicle	OCI-C5x (clear cell)	2	51.7	active
CLDN12	Vehicle	OCI-C5x (clear cell)	3	51.8	active
CLDN12	Vehicle	OCI-P5x (serous)	1	54.1	active
CLDN12	Vehicle	OCI-P5x (serous)	2	74.5	active
CLDN12	Vehicle	OCI-P5x (serous)	3	54.8	active

Continued.
no.	Target gene	rucaparib or vehicle	cell line	technical replicate	viability, normalised (%)	outcome
25	NME1-NME2	Rucaparib	OCI-C5x (clear cell)	1	45.9	active
26	NME1-NME2	Rucaparib	OCI-C5x (clear cell)	2	46.4	active
27	NME1-NME2	Rucaparib	OCI-C5x (clear cell)	3	59.4	active
28	NME1-NME2	Rucaparib	OCI-P5x (serous)	1	107	inactive
29	NME1-NME2	Rucaparib	OCI-P5x (serous)	2	80.1	inactive
30	NME1-NME2	Rucaparib	OCI-P5x (serous)	3	107	inactive
31	NME1-NME2	Vehicle	OCI-C5x (clear cell)	1	55	active
32	NME1-NME2	Vehicle	OCI-C5x (clear cell)	2	38	active
33	NME1-NME2	Vehicle	OCI-C5x (clear cell)	3	45.5	active
34	NME1-NME2	Vehicle	OCI-P5x (serous)	1	89.5	inactive
35	NME1-NME2	Vehicle	OCI-P5x (serous)	2	100	inactive
36	NME1-NME2	Vehicle	OCI-P5x (serous)	3	95.9	inactive
37	PRKAR1A	Rucaparib	OCI-C5x (clear cell)	1	69	active
38	PRKAR1A	Rucaparib	OCI-C5x (clear cell)	2	69.5	active
39	PRKAR1A	Rucaparib	OCI-C5x (clear cell)	3	63.6	active
40	PRKAR1A	Rucaparib	OCI-P5x (serous)	1	91.5	inactive
41	PRKAR1A	Rucaparib	OCI-P5x (serous)	2	66.9	active
42	PRKAR1A	Rucaparib	OCI-P5x (serous)	3	63.6	active
43	PRKAR1A	Vehicle	OCI-C5x (clear cell)	1	45	active
44	PRKAR1A	Vehicle	OCI-C5x (clear cell)	2	50.7	active
45	PRKAR1A	Vehicle	OCI-C5x (clear cell)	3	50.6	active
46	PRKAR1A	Vehicle	OCI-P5x (serous)	1	69.4	active
47	PRKAR1A	Vehicle	OCI-P5x (serous)	2	77.6	active
48	PRKAR1A	Vehicle	OCI-P5x (serous)	3	57.7	active
49	CSMD3	Rucaparib	OCI-C5x (clear cell)	1	64.1	active
50	CSMD3	Rucaparib	OCI-C5x (clear cell)	2	67.7	active
51	CSMD3	Rucaparib	OCI-C5x (clear cell)	3	72.4	active
52	CSMD3	Rucaparib	OCI-P5x (serous)	1	82.9	inactive
53	CSMD3	Rucaparib	OCI-P5x (serous)	2	86.7	inactive
54	CSMD3	Rucaparib	OCI-P5x (serous)	3	82.2	inactive
55	CSMD3	Vehicle	OCI-C5x (clear cell)	1	71.5	active
56	CSMD3	Vehicle	OCI-C5x (clear cell)	2	64.7	active
57	CSMD3	Vehicle	OCI-C5x (clear cell)	3	65.1	active
58	CSMD3	Vehicle	OCI-P5x (serous)	1	90.7	inactive
59	CSMD3	Vehicle	OCI-P5x (serous)	2	89	inactive
60	CSMD3	Vehicle	OCI-P5x (serous)	3	82.6	inactive
